In article PMC4323032:
Results are given in words; binding and its absence hold for the method and conditions named. Binding seen in cells or lysates may run through a third protein. These calls come from enrichment with a bait or labelling near it, and not all partners need be listed.

Protein sequences, listed by entry. Tags and fused reporters are not part of them. Residues count along the entry.
UniProt Q61781: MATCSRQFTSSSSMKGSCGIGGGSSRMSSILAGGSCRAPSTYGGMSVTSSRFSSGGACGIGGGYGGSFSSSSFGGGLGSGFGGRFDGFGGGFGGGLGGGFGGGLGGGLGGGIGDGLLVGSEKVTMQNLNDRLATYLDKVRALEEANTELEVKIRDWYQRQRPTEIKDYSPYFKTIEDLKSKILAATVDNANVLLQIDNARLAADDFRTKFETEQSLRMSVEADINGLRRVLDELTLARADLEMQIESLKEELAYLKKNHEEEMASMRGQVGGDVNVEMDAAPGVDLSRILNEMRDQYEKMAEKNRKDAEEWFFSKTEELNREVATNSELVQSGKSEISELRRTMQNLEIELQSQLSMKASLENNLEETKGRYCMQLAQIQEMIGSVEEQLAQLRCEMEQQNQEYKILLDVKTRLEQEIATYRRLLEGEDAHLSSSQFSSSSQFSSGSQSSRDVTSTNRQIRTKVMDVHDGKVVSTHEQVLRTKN
UniProt Q9QWL7: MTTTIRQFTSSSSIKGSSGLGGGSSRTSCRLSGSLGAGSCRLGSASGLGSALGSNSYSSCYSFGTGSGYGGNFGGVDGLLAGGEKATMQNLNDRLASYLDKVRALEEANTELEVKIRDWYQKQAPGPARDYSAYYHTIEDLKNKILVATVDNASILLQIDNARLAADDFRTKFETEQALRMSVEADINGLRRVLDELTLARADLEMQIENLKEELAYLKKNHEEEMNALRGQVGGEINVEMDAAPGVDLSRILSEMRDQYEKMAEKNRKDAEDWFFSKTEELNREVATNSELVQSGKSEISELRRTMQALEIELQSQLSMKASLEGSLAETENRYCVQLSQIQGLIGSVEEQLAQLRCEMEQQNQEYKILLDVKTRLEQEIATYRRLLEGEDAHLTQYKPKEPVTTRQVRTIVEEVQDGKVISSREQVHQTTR
UniProt Q6IFX2: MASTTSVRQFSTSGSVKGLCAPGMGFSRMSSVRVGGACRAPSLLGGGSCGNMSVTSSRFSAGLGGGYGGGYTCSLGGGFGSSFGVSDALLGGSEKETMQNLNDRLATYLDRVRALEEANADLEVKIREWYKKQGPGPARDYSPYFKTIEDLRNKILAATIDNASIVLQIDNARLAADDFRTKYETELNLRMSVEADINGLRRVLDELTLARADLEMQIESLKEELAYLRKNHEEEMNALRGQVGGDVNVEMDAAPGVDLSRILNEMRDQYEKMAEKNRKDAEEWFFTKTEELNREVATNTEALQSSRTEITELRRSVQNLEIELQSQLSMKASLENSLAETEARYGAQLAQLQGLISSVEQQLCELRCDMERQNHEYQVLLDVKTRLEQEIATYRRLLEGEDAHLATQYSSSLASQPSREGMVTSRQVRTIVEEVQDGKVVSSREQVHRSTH
UniProt Q99M73: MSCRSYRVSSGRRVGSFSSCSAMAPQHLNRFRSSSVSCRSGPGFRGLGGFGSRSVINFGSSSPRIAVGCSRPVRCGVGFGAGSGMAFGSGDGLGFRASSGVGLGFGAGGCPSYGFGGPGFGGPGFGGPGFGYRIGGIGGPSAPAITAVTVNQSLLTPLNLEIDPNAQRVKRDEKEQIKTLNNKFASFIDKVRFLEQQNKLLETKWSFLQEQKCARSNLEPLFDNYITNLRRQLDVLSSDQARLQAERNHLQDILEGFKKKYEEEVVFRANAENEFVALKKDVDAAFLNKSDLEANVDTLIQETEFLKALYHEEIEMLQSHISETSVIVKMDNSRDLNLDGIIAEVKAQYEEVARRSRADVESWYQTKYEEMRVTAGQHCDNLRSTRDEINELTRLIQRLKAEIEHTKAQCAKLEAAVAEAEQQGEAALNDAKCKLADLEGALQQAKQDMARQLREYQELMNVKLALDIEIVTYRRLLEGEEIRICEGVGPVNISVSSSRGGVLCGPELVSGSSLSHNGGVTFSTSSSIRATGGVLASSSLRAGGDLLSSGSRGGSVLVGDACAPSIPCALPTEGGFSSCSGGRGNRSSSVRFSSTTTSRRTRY
UniProt Q6IFZ6: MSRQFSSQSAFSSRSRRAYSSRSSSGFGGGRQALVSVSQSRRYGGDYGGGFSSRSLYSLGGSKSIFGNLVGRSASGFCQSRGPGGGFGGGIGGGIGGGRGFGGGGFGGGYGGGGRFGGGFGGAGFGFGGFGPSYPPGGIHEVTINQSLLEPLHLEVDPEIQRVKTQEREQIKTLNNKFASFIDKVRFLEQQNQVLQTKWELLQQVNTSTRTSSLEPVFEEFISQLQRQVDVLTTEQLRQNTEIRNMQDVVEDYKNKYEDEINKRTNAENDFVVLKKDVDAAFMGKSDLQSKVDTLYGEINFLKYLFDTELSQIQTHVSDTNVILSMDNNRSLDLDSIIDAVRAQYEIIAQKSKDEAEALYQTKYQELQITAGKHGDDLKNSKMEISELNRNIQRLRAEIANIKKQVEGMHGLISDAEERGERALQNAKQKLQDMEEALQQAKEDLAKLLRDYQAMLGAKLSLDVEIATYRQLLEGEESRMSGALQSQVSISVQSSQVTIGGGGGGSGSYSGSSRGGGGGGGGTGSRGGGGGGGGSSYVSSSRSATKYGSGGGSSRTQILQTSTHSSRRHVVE
UniProt Q3UV17: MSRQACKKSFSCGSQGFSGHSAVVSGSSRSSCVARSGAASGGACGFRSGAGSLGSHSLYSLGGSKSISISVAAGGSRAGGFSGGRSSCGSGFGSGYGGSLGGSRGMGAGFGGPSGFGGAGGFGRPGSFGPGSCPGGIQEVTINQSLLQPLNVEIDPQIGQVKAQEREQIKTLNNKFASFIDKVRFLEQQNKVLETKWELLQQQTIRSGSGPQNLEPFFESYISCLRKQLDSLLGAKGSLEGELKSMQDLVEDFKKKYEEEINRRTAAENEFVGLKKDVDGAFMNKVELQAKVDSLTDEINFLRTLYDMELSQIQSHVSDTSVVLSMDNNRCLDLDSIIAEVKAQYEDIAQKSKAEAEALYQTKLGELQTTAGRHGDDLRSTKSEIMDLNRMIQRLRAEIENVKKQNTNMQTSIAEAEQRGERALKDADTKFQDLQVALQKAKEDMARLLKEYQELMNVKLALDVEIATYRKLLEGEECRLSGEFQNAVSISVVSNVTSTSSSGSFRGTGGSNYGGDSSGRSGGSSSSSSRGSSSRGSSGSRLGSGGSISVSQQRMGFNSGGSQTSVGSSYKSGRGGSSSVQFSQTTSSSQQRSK
UniProt Q6IME9: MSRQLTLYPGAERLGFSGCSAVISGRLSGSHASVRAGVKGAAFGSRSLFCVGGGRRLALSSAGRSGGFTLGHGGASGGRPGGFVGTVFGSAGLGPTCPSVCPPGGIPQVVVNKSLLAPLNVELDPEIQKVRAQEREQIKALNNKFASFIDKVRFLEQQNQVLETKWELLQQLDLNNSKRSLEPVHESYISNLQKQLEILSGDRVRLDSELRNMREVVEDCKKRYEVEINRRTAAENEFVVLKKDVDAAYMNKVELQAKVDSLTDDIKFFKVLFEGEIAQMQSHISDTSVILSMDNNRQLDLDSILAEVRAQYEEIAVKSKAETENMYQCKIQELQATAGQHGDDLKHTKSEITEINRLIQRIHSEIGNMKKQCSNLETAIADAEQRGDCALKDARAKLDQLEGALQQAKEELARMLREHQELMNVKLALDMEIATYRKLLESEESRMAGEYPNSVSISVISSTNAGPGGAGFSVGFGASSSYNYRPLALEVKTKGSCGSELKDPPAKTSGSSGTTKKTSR
UniProt Q6IFZ9: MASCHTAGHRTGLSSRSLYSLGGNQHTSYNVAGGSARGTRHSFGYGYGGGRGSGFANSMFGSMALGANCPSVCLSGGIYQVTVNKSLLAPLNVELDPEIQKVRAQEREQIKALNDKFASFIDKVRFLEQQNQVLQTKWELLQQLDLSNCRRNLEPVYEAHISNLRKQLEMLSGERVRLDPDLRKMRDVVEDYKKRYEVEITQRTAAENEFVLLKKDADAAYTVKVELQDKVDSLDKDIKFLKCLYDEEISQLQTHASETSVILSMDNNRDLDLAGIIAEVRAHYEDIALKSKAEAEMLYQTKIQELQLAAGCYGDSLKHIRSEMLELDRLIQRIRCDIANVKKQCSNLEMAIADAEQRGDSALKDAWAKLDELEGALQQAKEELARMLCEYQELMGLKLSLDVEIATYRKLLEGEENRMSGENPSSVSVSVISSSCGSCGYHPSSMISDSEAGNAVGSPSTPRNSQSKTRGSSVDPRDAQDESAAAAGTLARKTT
UniProt P07724, residues 25-608: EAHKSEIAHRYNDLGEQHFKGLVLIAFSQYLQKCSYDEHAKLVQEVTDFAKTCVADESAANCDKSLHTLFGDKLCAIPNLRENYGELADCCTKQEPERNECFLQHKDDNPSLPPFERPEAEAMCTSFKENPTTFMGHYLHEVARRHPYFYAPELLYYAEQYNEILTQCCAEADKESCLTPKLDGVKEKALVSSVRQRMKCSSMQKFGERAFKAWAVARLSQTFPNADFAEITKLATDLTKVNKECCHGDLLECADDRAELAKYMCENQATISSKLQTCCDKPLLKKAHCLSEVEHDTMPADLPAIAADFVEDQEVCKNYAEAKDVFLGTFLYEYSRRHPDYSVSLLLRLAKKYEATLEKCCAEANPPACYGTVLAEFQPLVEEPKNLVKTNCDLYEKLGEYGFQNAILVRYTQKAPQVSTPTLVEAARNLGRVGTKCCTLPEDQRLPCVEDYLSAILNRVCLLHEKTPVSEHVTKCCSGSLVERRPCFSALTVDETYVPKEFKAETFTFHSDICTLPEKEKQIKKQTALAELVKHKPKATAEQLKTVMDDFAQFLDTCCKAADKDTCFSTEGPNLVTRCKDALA

molecular target: T1, Peroxiredoxin V (mouse (endogenous in kidney)) (UniProt P99029); assay: affinity purification with mass spectrometry; 500 μg total protein of normoxic or hypoxic (8% O2, 4 h) mouse kidney, anti-Prdx V antibody at 4°C overnight, protein G agarose; gel-assisted digestion, nano-UPLC-MS^E; three independent experiments
T1 sequence: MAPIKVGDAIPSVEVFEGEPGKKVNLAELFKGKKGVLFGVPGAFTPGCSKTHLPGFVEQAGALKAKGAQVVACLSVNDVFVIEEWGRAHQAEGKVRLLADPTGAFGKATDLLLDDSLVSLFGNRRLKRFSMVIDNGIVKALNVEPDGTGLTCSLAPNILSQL

Question: For “Keratin Kb40 (mouse (endogenous in kidney))”, which binding is on record?
Answer: binds

Question: With “Keratin type I cytoskeletal 14 (from UniProt Q61781 1-484)” as the substance, how does the binding read?
Answer: binds

Question: Which binding does the source give for “Keratin type I cytoskeletal 17 (from UniProt Q9QWL7 1-433)” here?
Answer: binds

Question: “Keratin type I cytoskeletal 42 (from UniProt Q6IFX2 1-452)” was tested. Which binding did it give?
Answer: binds

Question: Which binding does the source give for “Keratin type II cuticular Hb4 (from UniProt Q99M73 1-603)” here?
Answer: binds

Question: With “Keratin type II cytoskeletal 1b (from UniProt Q6IFZ6 1-572)” as the substance, how does the binding read?
Answer: binds

Question: How did the binding turn out when “Keratin type II cytoskeletal 2, oral (from UniProt Q3UV17 1-594)” was run?
Answer: binds

Question: For “Keratin type II cytoskeletal 72 (from UniProt Q6IME9 1-520)”, which binding is on record?
Answer: binds

Question: Which binding does the source give for “Keratin type II cytoskeletal 74 (from UniProt Q6IFZ9 1-495)” here?
Answer: binds

Question: “Serum albumin (from UniProt P07724 25-608)” was tested. Which binding did it give?
Answer: binds
